Assay results as given in PubChem BioAssay AID1935 (Broad Institute, 2009).
Over roughly 1,200 compounds, “activity change, negative = cytotoxic” has its median near -53; the highest 2% begin near 78. The list shows a part of the results. Potency and affinity values are given separately. Entries without a call are filed as inconclusive in the source.

Assay: cytotoxicity toward BJ-TERT-LT-ST fibroblasts, dose response, cell-based, RAS-independent, luminescence (AID 1935)
Details: BJ-TERT-LT-ST fibroblast viability, ATP luminescence; at 15 µM (top of the series)
Work on `CCOc1ccc(C2=Nn3c(nnc3-c3ccccc3OC)SC2)cc1` yielded an activity change, negative = cytotoxic of -52.7%. For `COc1ccccc1-c1nnc2sc(-c3ccc(N(C)C)cc3)nn12`, the activity change, negative = cytotoxic was -49.1%. In the case of `O=C(/C=C/c1cccc(Cl)c1)c1ccc([N+](=O)[O-])o1`, the activity change, negative = cytotoxic is reported as 77.8%. `COc1ccc(COC(=O)c2cc([N+](=O)[O-])ccc2N2CCOCC2)cc1F` showed an activity change, negative = cytotoxic of -51.5%. For `O=C(N/N=C/C(Br)=C\c1ccccc1)c1n[nH]c2c1CCC2`, the activity change, negative = cytotoxic was -22.8%. For `Cc1ccc(Nc2nc(-c3c(C)nc4ncccn34)cs2)cc1`, the activity change, negative = cytotoxic was -39.1%. Work on `N#CC1=C(N)Oc2c(ccc3ccccc23)C1c1ccsc1` (stereo not given) yielded an activity change, negative = cytotoxic of -54.9%. For `COc1ccc(/C=N/NC(=O)c2[nH]c3ccc(Br)cc3c2-c2ccccc2)cc1`, the activity change, negative = cytotoxic was -47.8%. With `COc1ccc(C(=O)NN(C)c2nc(C(F)(F)F)nc3ccccc23)cc1` the activity change, negative = cytotoxic was -52.9%. Work on `Cc1cccc(C)c1NS(=O)(=O)c1ccc(-c2cnc(C3CC3)o2)cc1` yielded an activity change, negative = cytotoxic of -64.4%. With `COc1cccc(N2CCN(C(=O)c3ccc(CS(=O)c4ccccc4Cl)o3)CC2)c1` (stereo not given) the activity change, negative = cytotoxic was -51.6%. With `COc1cc(-c2noc(C)c2-c2ccc(N(C)C)nc2)cc(OC)c1OC` the activity change, negative = cytotoxic was -53%. Work on `Cc1ccc(Nc2nc(N)nc(-c3oc4ccccc4c3C)n2)cc1` yielded an activity change, negative = cytotoxic of -64.4%. In the case of `CN[C@H]1CCc2cc(OC)c(OC)c(OC)c2-c2ccc(OC)c(=O)cc21`, the activity change, negative = cytotoxic is reported as -51.3%. Molecule `COc1cc(C2C(C#N)=C(N)Oc3cc(N(C)C)ccc32)cc2c1OCO2` (stereo not given) has an activity change, negative = cytotoxic of -56.9%. Work on `Cc1ccc(C)c(NS(=O)(=O)c2ccc(-c3cnc(C4CC4)o3)cc2)c1` yielded an activity change, negative = cytotoxic of -54.7%. For `CCN(CC)c1ccc2cc(-c3nc4ccccc4n3C)c(=O)oc2c1`, the activity change, negative = cytotoxic was -63.6%. In the case of `N#Cc1c(NC(=O)/C=C/c2ccco2)sc2c1CCCC2`, the activity change, negative = cytotoxic is reported as -51%. `CSc1nc(N(C)NC(=O)c2cccc(C)c2)c2ccccc2n1` gave an activity change, negative = cytotoxic of -60.2%. Work on `Cc1cccc(N(C)S(=O)(=O)c2ccc(-c3cnc(C4CC4)o3)cc2)c1` yielded an activity change, negative = cytotoxic of -53.4%.
